This note sets out measurements from paper PMC7554342.

The chains behind the UniProt entries cited, without tags or fusion partners.
UniProt A0ACM8QAS8: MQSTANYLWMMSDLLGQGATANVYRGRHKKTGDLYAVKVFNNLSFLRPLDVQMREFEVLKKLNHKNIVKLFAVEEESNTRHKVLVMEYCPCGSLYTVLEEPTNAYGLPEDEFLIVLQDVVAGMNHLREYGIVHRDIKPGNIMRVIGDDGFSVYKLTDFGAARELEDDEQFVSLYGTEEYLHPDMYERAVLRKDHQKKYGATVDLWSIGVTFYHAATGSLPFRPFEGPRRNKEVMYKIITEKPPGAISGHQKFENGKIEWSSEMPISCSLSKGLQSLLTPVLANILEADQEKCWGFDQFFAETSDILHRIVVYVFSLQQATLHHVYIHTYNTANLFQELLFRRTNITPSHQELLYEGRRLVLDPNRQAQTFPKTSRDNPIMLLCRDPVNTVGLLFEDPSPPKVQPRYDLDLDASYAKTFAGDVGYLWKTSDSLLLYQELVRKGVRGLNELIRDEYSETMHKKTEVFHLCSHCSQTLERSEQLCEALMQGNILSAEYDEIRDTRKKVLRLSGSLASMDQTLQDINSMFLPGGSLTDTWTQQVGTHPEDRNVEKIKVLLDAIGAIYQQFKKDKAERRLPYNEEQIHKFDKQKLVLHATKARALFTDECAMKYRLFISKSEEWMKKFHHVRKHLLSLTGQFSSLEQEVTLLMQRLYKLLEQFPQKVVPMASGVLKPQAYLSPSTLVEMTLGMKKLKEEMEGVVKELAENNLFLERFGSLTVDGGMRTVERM

The target of the test is zebrafish TBK1-FLAG (p3 × FLAG-TBK1) (zebrafish). Kind of test: co-IP; anti-FLAG-conjugated agarose beads (FLAG-Tagged Protein Immunoprecipitation Kit) on lysates of EPC cells 48 h after co-transfection, with or without co-expressed TBK1_tv3-GFP; agarose washed 8-10 times; blots with anti-FLAG and anti-pTurboGFP.

Results are given in words; binding and its absence hold for the method and conditions named. Binding seen in cells or lysates may run through a third protein. Some binding calls cover weakened binding; strength is not graded here.

Turning to “zebrafish TBK1-GFP (pTurbo-TBK1-GFP) (from UniProt A0ACM8QAS8 1-727) (enzyme)”, the binding result is listed as “binds”.
